Data from article doi:10.1101/2023.01.11.523622.
No constants are given. Whether binding was seen depends on the method and setting. In cells and extracts the contact can be indirect. A yes stands for co-enrichment or nearness to the bait. Other partners may have been found.

Protein sequences, listed by entry. Tags and fused reporters are not part of them.
UniProt Q93009: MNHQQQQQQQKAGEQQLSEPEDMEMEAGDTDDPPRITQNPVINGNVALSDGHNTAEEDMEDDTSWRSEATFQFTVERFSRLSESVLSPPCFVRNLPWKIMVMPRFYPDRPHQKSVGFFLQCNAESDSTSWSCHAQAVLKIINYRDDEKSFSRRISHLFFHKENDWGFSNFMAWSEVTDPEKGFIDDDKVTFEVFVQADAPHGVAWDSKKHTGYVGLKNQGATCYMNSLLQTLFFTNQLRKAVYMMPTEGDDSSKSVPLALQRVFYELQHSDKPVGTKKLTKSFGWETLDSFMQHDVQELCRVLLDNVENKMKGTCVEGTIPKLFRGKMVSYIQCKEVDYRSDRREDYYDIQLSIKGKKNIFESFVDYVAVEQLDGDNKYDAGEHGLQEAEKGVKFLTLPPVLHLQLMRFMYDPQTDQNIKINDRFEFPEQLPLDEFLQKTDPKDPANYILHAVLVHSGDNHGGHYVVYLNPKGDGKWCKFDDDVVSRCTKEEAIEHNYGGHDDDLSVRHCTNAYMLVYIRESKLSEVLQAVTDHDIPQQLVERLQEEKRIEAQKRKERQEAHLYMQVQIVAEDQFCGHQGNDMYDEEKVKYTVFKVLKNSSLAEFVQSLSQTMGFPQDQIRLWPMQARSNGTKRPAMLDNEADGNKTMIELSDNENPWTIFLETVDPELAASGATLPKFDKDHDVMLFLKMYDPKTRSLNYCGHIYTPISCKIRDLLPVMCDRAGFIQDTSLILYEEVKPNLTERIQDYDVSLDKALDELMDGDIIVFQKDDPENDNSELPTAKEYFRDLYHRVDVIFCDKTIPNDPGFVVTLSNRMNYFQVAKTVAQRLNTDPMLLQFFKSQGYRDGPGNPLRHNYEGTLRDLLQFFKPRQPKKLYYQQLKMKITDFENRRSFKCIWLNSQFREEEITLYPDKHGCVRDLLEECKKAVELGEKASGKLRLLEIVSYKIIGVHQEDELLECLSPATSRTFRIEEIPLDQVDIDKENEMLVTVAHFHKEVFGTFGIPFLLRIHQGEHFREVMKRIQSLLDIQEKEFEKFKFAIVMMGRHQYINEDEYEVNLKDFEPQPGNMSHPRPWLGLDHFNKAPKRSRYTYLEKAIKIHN
UniProt Q9Y265: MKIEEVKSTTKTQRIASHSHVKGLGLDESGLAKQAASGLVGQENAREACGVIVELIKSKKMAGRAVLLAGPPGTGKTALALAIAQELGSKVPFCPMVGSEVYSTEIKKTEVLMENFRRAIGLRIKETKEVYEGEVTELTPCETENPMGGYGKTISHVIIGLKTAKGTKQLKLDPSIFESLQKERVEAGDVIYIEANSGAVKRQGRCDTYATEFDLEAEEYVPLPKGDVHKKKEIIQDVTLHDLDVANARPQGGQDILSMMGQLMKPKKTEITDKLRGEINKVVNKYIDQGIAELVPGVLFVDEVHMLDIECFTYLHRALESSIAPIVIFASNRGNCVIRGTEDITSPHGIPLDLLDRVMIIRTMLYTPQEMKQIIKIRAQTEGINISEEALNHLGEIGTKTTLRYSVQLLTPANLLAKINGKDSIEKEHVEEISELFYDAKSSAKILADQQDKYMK
UniProt O00571: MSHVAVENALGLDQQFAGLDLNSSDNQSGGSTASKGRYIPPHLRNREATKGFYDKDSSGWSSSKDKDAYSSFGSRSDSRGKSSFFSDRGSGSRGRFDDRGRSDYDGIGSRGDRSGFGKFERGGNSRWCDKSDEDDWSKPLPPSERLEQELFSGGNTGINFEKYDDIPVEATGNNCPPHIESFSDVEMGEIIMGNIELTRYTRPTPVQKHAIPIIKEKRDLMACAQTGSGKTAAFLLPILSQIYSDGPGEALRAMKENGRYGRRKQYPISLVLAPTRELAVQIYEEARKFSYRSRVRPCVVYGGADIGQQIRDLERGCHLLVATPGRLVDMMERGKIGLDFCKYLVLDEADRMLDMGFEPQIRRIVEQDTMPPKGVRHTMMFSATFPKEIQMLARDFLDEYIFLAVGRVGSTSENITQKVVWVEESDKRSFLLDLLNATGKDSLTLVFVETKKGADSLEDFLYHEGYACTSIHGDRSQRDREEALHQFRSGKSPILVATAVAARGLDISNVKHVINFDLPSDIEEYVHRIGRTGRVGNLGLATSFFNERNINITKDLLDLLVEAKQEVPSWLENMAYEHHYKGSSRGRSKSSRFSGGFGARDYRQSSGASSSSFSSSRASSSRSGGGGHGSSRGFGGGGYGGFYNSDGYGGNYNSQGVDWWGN

Target: GST-USP7 (ubiquitin specific peptidase 7) (UniProt Q93009)
Assay: affinity purification with mass spectrometry

Row | Molecule | binding
1 | DNA helicase RUVBL1 (from UniProt Q9Y265 1-456) | binds
2 | DEAH box RNA helicase DHX40 (protein, UniProt Q8IX18 1-779) MSRFPAVAGRAPRRQEEGERSRDLQEERLSAVCIADREEKGCTSQEGGTTPTFPIQKQRKKIIQAVRDNSFLIVTGNTGSGKTTQLPKYLYEAGFSQHGMIGVTQPRKVAAISVAQRVAEEMKCTLGSKVGYQVRFDDCSSKETAIKYMTDGCLLKHILGDPNLTKFSVIILDEAHERTLTTDILFGLLKKLFQEKSPNRKEHLKVVVMSATMELAKLSAFFGNCPIFDIPGRLYPVREKFCNLIGPRDRENTAYIQAIVKVTMDIHLNEMAGDILVFLTGQFEIEKSCELLFQMAESVDYDYDVQDTTLDGLLILPCYGSMTTDQQRRIFLPPPPGIRKCVISTNISATSLTIDGIRYVVDGGFVKQLNHNPRLGLDILEVVPISKSEALQRSGRAGRTSSGKCFRIYSKDFWNQCMPDHVIPEIKRTSLTSVVLTLKCLAIHDVIRFPYLDPPNERLILEALKQLYQCDAIDRSGHVTRLGLSMVEFPLPPHLTCAVIKAASLDCEDLLLPIAAMLSVENVFIRPVDPEYQKEAEQRHRELAAKAGGFNDFATLAVIFEQCKSSGAPASWCQKHWIHWRCLFSAFRVEAQLRELIRKLKQQSDFPKETFEGPKHEVLRRCLCAGYFKNVARRSVGRTFCTMDGRGSPVHIHPSSALHEQETKLEWIIFHEVLVTTKVYARIVCPIRYEWVRDLLPKLHEFNAHDLSSVARREVREDARRRWTNKENVKQLKDGISKDVLKKMQRRNDDKSISDARARFLERKQQRTQDHSDTRKETG | binds

Other lines, results leading:

Row | binding | Molecule
3 | binds | DEAD-box RNA helicase DDX3X, endogenous (from UniProt O00571 1-662)
4 | binds | mini-chromosome complex (MCM) subunit MCM5 (protein, UniProt P33992 1-734) MSGFDDPGIFYSDSFGGDAQADEGQARKSQLQRRFKEFLRQYRVGTDRTGFTFKYRDELKRHYNLGEYWIEVEMEDLASFDEDLADYLYKQPAEHLQLLEEAAKEVADEVTRPRPSGEEVLQDIQVMLKSDASPSSIRSLKSDMMSHLVKIPGIIIAASAVRAKATRISIQCRSCRNTLTNIAMRPGLEGYALPRKCNTDQAGRPKCPLDPYFIMPDKCKCVDFQTLKLQELPDAVPHGEMPRHMQLYCDRYLCDKVVPGNRVTIMGIYSIKKFGLTTSRGRDRVGVGIRSSYIRVLGIQVDTDGSGRSFAGAVSPQEEEEFRRLAALPNVYEVISKSIAPSIFGGTDMKKAIACLLFGGSRKRLPDGLTRRGDINLLMLGDPGTAKSQLLKFVEKCSPIGVYTSGKGSSAAGLTASVMRDPSSRNFIMEGGAMVLADGGVVCIDEFDKMREDDRVAIHEAMEQQTISIAKAGITTTLNSRCSVLAAANSVFGRWDETKGEDNIDFMPTILSRFDMIFIVKDEHNEERDVMLAKHVITLHVSALTQTQAVEGEIDLAKLKKFIAYCRVKCGPRLSAEAAEKLKNRYIIMRSGARQHERDSDRRSSIPITVRQLEAIVRIAEALSKMKLQPFATEADVEEALRLFQVSTLDAALSGTLSGVEGFTSQEDQEMLSRIEKQLKRRFAIGSQVSEHSIIKDFTKQKYPEHAIHKVLQLMLRRGEIQHRMQRKVLYRLK
